Data as given in paper PMC6127298.
These are yes or no findings as the source states them, for the method shown. In cells and extracts the contact can be indirect. Binding calls can cover weak binding; strength is not graded here.

By UniProt entry, the sequences of proteins in these tests, tags left out. Where a name states a change or a piece, a line headed by the entry shows the natural chain unless it says otherwise.
UniProt Q9H3D4: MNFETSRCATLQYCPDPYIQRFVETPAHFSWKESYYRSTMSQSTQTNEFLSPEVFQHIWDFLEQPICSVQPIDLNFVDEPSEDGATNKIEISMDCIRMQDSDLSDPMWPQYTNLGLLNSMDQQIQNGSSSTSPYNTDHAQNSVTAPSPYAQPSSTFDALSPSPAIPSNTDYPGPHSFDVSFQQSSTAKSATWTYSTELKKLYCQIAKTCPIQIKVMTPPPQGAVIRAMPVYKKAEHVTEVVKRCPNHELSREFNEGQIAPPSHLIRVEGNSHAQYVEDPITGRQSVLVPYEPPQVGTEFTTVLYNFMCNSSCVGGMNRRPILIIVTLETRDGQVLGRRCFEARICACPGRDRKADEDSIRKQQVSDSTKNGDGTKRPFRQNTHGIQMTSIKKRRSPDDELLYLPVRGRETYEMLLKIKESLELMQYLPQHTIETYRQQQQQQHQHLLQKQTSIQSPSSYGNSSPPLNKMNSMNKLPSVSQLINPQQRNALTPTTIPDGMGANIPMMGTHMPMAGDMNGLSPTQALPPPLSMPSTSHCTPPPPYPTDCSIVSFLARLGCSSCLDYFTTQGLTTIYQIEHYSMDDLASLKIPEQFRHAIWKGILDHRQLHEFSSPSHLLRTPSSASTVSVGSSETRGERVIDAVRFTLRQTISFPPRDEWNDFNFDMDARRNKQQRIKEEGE
UniProt P48431: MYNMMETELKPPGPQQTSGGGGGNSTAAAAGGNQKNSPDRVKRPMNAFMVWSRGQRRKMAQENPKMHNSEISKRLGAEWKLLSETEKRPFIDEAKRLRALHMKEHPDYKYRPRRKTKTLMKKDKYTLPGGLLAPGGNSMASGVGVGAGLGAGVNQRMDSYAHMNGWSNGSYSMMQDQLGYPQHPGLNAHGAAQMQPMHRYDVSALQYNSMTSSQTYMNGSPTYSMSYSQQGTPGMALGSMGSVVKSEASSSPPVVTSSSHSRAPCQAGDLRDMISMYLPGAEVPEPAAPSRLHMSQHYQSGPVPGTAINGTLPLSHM

Target: TP63 (human (endogenous in SCC cell lines)) (UniProt Q9H3D4)
Test: co-IP; 500 ug whole-cell lysate (RIPA buffer) incubated with indicated antibody or IgG overnight in cold room, Dynabeads protein A/G 4 h, Western blotting; also done in cells with CCAT1 downregulated (binding not affected)

binding: binds
Substance: SOX2 (from UniProt P48431 1-317)
